Laboratory results published in publication PMC3401373.
Results are given in words; binding and its absence hold for the method and conditions named. Binding seen in cells or lysates may run through a third protein. Some results given as binding are weak or reduced against the parent protein; the word gives no strength.

Sequences of proteins named here, by UniProt entry; tags and fusion partners are left off.
UniProt Q93009: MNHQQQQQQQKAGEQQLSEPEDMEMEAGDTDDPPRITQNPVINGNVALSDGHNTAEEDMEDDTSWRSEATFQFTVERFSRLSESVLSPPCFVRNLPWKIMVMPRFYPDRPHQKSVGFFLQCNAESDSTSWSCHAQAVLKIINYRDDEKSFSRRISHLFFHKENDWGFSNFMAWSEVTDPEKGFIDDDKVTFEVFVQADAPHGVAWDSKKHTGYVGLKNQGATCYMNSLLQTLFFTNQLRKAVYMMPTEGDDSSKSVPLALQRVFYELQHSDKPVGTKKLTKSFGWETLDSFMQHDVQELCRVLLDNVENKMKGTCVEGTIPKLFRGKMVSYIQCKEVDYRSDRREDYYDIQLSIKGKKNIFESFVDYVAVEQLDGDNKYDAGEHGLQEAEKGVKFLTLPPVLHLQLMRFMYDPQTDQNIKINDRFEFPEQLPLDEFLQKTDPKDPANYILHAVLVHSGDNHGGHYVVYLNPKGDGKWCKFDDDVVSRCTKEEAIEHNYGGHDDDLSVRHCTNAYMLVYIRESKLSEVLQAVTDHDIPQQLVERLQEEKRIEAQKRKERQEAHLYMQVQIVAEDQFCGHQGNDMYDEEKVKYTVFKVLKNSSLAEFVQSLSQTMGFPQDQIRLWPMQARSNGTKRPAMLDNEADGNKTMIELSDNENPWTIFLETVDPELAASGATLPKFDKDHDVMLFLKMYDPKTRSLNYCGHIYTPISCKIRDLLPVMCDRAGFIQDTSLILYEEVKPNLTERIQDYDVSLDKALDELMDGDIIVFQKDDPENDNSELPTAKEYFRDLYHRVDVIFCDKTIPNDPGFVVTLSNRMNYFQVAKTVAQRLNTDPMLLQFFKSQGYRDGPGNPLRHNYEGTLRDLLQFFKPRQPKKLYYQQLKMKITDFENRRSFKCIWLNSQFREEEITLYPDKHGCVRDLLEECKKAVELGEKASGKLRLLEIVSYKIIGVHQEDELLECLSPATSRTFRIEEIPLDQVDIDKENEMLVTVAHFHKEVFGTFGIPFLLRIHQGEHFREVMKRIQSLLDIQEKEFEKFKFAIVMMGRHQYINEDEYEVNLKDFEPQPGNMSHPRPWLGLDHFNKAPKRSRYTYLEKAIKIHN

Target: Flag-tagged USP7S expressed in AG06173 cells (human) (UniProt Q93009)
Test: co-IP; AG06173 cells co-transfected with USP7S and PPM1G expression plasmids (0.5 pmol each, 24 hr); whole cell extract (500 μg); Flag-tagged USP7S pulled down with Flag-agarose beads (magnetic beads as mock control); western blot with USP7S and PPM1G antibodies

binding: binds
B1: PPM1G expressed in AG06173 cells (enzyme, UniProt O15355 1-546)
chain: MGAYLSQPNTVKCSGDGVGAPRLPLPYGFSAMQGWRVSMEDAHNCIPELDSETAMFSVYDGHGGEEVALYCAKYLPDIIKDQKAYKEGKLQKALEDAFLAIDAKLTTEEVIKELAQIAGRPTEDEDEKEKVADEDDVDNEEAALLHEEATMTIEELLTRYGQNCHKGPPHSKSGGGTGEEPGSQGLNGEAGPEDSTRETPSQENGPTAKAYTGFSSNSERGTEAGQVGEPGIPTGEAGPSCSSASDKLPRVAKSKFFEDSEDESDEAEEEEEDSEECSEEEDGYSSEEAENEEDEDDTEEAEEDDEEEEEEMMVPGMEGKEEPGSDSGTTAVVALIRGKQLIVANAGDSRCVVSEAGKALDMSYDHKPEDEVELARIKNAGGKVTMDGRVNGGLNLSRAIGDHFYKRNKNLPPEEQMISALPDIKVLTLTDDHEFMVIACDGIWNVMSSQEVVDFIQSKISQRDENGELRLLSSIVEELLDQCLAPDTSGDGTGCDNMTCIIICFKPRNTAELQPESGKRKLEEVLSTEGAEENGNSDKKKKAKRD
